# This is one part of the list.
# Amino acid sequences for entries named in this document (tags omitted). A change or cut given only in a name is not applied to a line headed by its entry.
# UniProt P20645: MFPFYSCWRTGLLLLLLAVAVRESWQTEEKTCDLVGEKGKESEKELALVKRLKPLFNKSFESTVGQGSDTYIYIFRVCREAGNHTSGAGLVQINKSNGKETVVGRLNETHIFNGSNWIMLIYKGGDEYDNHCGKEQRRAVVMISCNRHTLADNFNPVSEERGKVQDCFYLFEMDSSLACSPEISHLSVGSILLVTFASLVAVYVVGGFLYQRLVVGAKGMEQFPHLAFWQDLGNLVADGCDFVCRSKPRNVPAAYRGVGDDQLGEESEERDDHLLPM
# UniProt Q66K74: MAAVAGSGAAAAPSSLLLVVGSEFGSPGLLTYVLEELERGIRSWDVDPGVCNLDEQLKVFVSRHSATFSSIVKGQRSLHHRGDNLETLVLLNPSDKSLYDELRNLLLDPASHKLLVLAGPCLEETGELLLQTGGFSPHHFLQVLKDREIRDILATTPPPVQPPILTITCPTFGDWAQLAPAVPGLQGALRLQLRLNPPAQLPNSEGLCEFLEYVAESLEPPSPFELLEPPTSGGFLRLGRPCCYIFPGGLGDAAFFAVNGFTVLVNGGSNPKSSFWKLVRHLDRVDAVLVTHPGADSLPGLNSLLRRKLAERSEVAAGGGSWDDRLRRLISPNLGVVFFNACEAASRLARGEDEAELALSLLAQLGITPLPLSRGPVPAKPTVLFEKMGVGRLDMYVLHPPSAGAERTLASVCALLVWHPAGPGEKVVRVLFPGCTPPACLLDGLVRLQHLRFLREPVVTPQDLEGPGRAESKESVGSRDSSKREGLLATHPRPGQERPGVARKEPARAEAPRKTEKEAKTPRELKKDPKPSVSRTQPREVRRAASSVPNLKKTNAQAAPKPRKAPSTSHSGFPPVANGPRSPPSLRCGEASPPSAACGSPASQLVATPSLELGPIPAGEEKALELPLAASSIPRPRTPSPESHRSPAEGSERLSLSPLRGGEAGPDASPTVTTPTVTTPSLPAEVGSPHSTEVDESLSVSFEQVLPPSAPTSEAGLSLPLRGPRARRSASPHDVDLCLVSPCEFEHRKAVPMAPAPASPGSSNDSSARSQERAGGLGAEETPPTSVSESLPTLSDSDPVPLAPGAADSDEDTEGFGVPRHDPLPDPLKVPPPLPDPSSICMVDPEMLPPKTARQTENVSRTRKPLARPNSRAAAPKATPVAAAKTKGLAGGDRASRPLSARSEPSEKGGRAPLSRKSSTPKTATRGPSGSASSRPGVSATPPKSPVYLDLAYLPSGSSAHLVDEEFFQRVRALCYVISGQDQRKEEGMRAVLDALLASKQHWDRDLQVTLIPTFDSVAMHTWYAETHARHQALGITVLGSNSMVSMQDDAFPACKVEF
# UniProt Q9Y2U5: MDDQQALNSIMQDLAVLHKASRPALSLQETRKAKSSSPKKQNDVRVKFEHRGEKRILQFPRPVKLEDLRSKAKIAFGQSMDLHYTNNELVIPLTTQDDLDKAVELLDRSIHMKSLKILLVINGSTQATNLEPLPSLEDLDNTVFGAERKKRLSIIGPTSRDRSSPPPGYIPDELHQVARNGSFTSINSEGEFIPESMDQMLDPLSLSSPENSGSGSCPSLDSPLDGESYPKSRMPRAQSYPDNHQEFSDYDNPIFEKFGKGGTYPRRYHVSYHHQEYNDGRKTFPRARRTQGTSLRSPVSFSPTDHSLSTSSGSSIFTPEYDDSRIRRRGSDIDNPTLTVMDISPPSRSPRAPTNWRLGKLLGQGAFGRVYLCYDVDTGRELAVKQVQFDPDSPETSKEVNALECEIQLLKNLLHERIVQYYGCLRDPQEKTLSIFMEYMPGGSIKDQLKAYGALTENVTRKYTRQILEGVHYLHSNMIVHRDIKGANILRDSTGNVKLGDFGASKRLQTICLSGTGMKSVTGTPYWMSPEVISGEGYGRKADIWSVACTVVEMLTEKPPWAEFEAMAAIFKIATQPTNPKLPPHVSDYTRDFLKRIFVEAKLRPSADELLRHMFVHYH
# UniProt Q8WXG6, whole entry, looked up: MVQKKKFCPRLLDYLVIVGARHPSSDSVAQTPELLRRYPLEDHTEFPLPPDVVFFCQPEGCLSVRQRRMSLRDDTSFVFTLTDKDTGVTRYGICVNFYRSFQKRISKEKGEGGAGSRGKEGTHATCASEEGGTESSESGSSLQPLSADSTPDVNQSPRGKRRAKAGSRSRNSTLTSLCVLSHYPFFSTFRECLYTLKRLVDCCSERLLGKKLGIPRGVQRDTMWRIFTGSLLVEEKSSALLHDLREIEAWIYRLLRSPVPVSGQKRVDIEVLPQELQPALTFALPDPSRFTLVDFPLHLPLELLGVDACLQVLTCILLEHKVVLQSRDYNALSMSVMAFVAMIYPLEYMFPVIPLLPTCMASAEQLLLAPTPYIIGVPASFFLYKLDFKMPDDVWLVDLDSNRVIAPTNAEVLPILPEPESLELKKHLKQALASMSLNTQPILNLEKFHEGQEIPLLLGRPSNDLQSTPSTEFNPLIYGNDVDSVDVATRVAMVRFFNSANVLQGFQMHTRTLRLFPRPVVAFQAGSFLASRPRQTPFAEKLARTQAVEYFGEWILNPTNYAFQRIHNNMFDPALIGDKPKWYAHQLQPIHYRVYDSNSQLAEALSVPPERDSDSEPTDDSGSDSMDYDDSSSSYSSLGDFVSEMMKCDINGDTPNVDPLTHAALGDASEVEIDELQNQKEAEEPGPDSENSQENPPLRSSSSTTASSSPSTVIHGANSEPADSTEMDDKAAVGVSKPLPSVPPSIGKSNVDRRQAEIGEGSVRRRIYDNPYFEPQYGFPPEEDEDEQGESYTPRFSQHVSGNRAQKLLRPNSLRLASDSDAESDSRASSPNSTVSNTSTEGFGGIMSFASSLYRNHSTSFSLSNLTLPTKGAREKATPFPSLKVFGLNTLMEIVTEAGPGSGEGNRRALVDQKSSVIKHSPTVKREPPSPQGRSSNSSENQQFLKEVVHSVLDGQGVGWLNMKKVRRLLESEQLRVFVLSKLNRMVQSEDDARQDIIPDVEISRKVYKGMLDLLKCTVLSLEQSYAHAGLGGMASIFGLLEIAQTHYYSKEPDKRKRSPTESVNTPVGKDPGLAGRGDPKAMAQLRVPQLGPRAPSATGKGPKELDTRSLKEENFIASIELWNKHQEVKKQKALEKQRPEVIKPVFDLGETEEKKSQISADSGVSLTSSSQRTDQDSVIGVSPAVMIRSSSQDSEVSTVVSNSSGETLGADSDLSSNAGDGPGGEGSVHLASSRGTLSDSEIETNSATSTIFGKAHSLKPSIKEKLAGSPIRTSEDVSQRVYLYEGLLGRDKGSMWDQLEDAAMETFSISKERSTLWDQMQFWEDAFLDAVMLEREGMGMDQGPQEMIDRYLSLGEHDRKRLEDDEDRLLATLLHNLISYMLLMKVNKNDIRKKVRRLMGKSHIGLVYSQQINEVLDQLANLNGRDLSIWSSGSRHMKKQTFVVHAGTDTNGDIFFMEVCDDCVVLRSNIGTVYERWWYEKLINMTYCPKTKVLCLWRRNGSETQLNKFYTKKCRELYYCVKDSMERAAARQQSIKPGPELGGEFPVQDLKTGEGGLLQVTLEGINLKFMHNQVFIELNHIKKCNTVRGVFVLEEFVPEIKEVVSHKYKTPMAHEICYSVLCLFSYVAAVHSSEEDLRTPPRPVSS
# UniProt O75608: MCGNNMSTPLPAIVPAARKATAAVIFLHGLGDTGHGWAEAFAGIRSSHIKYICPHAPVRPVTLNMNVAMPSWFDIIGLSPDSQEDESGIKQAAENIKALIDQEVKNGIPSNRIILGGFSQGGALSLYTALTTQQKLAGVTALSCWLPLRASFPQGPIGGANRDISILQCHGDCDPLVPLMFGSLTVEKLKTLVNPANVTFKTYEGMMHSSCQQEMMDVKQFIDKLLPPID
# UniProt Q96GX5: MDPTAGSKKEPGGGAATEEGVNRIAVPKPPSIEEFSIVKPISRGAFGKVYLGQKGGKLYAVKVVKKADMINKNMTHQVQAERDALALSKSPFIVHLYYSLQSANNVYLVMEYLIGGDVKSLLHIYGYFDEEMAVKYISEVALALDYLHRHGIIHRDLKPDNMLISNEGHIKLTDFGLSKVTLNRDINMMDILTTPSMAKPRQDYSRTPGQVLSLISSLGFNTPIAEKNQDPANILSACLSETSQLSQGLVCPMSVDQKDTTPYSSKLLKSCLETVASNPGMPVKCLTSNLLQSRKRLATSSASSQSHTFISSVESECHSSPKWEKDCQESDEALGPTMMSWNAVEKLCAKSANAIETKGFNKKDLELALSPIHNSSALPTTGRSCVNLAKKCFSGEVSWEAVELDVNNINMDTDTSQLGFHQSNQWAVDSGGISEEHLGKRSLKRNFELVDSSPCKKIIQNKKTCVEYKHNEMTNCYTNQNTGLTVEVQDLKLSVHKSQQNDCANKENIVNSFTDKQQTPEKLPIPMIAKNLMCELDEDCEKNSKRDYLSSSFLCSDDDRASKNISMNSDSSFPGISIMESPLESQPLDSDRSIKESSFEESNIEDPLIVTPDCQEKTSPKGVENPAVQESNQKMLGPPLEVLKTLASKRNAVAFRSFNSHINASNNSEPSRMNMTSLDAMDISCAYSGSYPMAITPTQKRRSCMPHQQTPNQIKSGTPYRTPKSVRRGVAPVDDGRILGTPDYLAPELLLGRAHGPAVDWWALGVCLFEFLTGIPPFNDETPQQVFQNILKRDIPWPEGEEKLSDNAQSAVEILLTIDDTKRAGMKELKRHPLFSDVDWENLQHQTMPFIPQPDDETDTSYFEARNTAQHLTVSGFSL
# UniProt P27448: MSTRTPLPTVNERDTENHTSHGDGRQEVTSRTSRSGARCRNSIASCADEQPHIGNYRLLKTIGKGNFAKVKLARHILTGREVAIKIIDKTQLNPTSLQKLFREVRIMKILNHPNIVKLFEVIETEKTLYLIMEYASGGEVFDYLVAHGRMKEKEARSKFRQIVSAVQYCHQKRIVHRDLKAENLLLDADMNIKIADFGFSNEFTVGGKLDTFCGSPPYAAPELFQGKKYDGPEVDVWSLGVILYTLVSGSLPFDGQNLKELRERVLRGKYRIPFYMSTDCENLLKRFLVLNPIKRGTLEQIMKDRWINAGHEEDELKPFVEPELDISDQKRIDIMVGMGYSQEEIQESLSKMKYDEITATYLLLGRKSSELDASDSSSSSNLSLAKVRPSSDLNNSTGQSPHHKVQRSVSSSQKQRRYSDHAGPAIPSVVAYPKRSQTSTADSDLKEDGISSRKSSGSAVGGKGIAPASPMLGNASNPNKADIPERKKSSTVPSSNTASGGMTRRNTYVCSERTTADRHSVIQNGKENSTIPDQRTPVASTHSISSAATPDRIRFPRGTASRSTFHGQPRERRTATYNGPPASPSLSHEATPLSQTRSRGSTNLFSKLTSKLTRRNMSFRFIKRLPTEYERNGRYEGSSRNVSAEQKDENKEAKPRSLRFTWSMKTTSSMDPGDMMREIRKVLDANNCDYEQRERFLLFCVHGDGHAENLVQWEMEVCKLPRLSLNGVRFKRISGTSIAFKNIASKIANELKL
# UniProt Q8WWC4: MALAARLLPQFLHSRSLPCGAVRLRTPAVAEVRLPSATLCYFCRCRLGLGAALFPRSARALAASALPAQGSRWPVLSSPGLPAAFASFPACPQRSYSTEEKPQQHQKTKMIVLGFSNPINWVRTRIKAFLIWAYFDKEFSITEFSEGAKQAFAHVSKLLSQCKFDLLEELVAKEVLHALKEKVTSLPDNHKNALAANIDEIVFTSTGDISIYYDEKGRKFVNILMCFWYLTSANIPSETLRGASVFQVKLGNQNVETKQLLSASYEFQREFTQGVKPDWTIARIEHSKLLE
# UniProt Q92918, whole entry, looked up: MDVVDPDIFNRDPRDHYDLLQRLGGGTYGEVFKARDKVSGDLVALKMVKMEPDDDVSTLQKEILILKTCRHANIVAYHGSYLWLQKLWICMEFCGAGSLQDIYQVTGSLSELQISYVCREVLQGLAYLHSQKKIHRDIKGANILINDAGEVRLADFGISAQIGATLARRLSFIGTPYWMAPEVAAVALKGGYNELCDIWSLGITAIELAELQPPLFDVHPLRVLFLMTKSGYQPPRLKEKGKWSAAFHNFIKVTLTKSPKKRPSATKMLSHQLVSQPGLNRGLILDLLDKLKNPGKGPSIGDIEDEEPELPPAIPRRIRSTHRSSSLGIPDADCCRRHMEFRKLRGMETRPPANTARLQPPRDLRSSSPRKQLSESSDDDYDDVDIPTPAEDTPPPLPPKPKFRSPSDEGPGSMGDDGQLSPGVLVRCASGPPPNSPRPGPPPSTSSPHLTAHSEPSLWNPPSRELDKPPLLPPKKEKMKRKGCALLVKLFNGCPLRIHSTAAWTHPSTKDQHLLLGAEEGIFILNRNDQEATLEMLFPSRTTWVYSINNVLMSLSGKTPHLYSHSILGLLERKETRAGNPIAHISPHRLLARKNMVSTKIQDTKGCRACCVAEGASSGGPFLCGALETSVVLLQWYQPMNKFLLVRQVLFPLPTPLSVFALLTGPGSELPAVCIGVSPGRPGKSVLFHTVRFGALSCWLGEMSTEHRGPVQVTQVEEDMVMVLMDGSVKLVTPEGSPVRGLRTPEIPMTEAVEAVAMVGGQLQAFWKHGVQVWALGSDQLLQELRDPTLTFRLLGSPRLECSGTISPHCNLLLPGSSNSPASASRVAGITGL
# Compound: CC1Cc2ccccc2N1C(=O)C1CCCN(C1)C(=O)CCl (mixture of isomers) [TRIM25 ligand 11 (diastereomer mixture)]
# Assay: probe-labelled cysteine peptide fold change vs DMSO (competition) (log2 fold change); higher = less target engagement (more negative = stronger competition)
# Conditions: 10 µM; THP-1; incubation time: 4 h
# 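Further: competitive chemoproteomic profiling in live THP-1 cells with an iodoacetamide desthiobiotin (IA-DTB) probe, comparing probe-labelled peptide intensities in compound-treated cells against DMSO-treated controls.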
row,Target,probe-labelled cysteine peptide fold change
1,M6PR_P20645_32_TCDLVGEK (UniProt P20645),-0.178
2,MAP1S_Q66K74_342_LISPNLGVVFFNACEAASR (UniProt Q66K74),-0.0757
3,LYN_P07948_226_ACISPK (UniProt P07948),0.0436
4,MACF1_Q9UPN3_4752_EAQTLCDELSVLIGEQYLK (UniProt Q9UPN3),-0.221
5,MAPRE2_Q15555_279_EIELLCQEHGQENDDLVQR (UniProt Q15555),-0.0442
6,MANBA_O00462_769_ESCVVSFYLSADHELLSPTNYHFLSSPK (UniProt O00462),0.329
7,LYRM7_Q5U5X0_97_KDLLVENVPYCDAPTQK (UniProt Q5U5X0),-0.0925
8,MAP3K2_Q9Y2U5_405_EVNALECEIQLLK (UniProt Q9Y2U5),-0.0048
9,MADD_Q8WXG6_1489_LINMTYCPK (UniProt Q8WXG6),0.148
10,LYST_Q99698_20_LCNAVVQR (UniProt Q99698),-0.0369
11,LYPLA1_O75608_169_DISILQCHGDCDPLVPLMFGSLTVEK (UniProt O75608),-0.0615
12,MAP3K7_O43318_180_ICDFGTACDIQTHMTNNK (UniProt O43318),-0.022
13,MAPRE2_Q15555_279_LREIELLCQEHGQENDDLVQR (UniProt Q15555),0.00852
14,LZTR1_Q8N653_667_AYLEGAGAEFCDITLLLDGHPRPAHK (UniProt Q8N653),-0.0537
15,MAPK13_O15264_162_DLKPGNLAVNEDCELK (UniProt O15264),0.023
16,MAPK7_Q13164_359_YHDPDDEPDCAPPFDFAFDR (UniProt Q13164),0.0359
17,MAP1S_Q66K74_738_SASPHDVDLCLVSPCEFEHR (UniProt Q66K74),-0.0533
18,MBNL1_Q9NR56_200_GENDCR (UniProt Q9NR56),-0.0763
19,MASTL_Q96GX5_614_ESSFEESNIEDPLIVTPDCQEK (UniProt Q96GX5),0.11
20,LYST_Q99698_504_CEYSHFMHHHR (UniProt Q99698),0.17

row,Target,probe-labelled cysteine peptide fold change
1,MACF1_Q9UPN3_7133_QVAQCK (UniProt Q9UPN3),-0.0489
2,MAP3K4_Q9Y6R4_1322_NIIGQVCDTPK (UniProt Q9Y6R4),0.0711
3,MARS_P56192_408_FVEGVCPFCGYEEARGDQCDK (UniProt P56192),-0.101
4,MACF1_Q9UPN3_5188_LDIEASEAECR (UniProt Q9UPN3),-0.0129
5,LY75_O60449_501_MCPPDEGWKR (UniProt O60449),-0.164
6,MACF1_Q9UPN3_3527_GSNSEIDVDSLNLCLQQYEDLK (UniProt Q9UPN3),-0.035
7,MAP10_Q9P2G4_273_TNSVVTCSGAGNGR (UniProt Q9P2G4),0.0477
8,MARK3_P27448_213_LDTFCGSPPYAAPELFQGK (UniProt P27448),0.0441
9,MAP7D1_Q3KQU3-4_329_DQAVPVCPR (UniProt Q3KQU3),-0.0498
10,LYAR_Q9NX58_6+9_VFFTCNACGESVKK (UniProt Q9NX58),-0.135
11,MACF1_Q9UPN3_666_LETQYCK (UniProt Q9UPN3),-0.0496
12,MAP3K1_Q13233_667_AMLVYTPCHSLAER (UniProt Q13233),0.29
13,MAP2K7_O14733_280_SAGCAAYMAPER (UniProt O14733),-0.179
14,MAIP1_Q8WWC4_162_LLSQCK (UniProt Q8WWC4),0.0902
15,MAP4K1_Q92918_428_CASGPPPNSPR (UniProt Q92918),0.0564
16,MADD_Q8WXG6_1521_ELYYCVK (UniProt Q8WXG6),-0.0221
17,LY75_O60449_1060_YHCALILNLQK (UniProt O60449),0.183
18,LYST_Q99698_2965_CYLTIPNK (UniProt Q99698),-0.0683
19,MAK16_Q9BXY0_17_QFCSFK (UniProt Q9BXY0),-0.141
20,LTA4H_P09960_136_EHPYLFSQCQAIHCR (UniProt P09960),0.00289

# Same assay, conditions: 50 µM; THP-1; incubation time: 4 h
row,Target,probe-labelled cysteine peptide fold change
1,M6PR_P20645_32_TCDLVGEK (UniProt P20645),-0.176
2,MAP1S_Q66K74_342_LISPNLGVVFFNACEAASR (UniProt Q66K74),-0.0686
3,LYN_P07948_226_ACISPK (UniProt P07948),0.2
4,MACF1_Q9UPN3_4752_EAQTLCDELSVLIGEQYLK (UniProt Q9UPN3),0.211
5,MAPRE2_Q15555_279_EIELLCQEHGQENDDLVQR (UniProt Q15555),-0.23
6,MANBA_O00462_769_ESCVVSFYLSADHELLSPTNYHFLSSPK (UniProt O00462),0.107
7,LYRM7_Q5U5X0_97_KDLLVENVPYCDAPTQK (UniProt Q5U5X0),-0.25
8,MAP3K2_Q9Y2U5_405_EVNALECEIQLLK (UniProt Q9Y2U5),-0.121
9,MADD_Q8WXG6_1489_LINMTYCPK (UniProt Q8WXG6),-0.121
10,LYST_Q99698_20_LCNAVVQR (UniProt Q99698),0.0718
11,LYPLA1_O75608_169_DISILQCHGDCDPLVPLMFGSLTVEK (UniProt O75608),-0.324
12,MAP3K7_O43318_180_ICDFGTACDIQTHMTNNK (UniProt O43318),-0.0171
13,MAPRE2_Q15555_279_LREIELLCQEHGQENDDLVQR (UniProt Q15555),-0.0148
14,LZTR1_Q8N653_667_AYLEGAGAEFCDITLLLDGHPRPAHK (UniProt Q8N653),0.0338
15,MAPK13_O15264_162_DLKPGNLAVNEDCELK (UniProt O15264),-0.114
16,MAPK7_Q13164_359_YHDPDDEPDCAPPFDFAFDR (UniProt Q13164),-0.0609
17,MAP1S_Q66K74_738_SASPHDVDLCLVSPCEFEHR (UniProt Q66K74),-0.0572
18,MBNL1_Q9NR56_200_GENDCR (UniProt Q9NR56),0.0299
19,MASTL_Q96GX5_614_ESSFEESNIEDPLIVTPDCQEK (UniProt Q96GX5),-0.199
20,LYST_Q99698_504_CEYSHFMHHHR (UniProt Q99698),-0.000316

row,Target,probe-labelled cysteine peptide fold change
1,MACF1_Q9UPN3_7133_QVAQCK (UniProt Q9UPN3),0.114
2,MAP3K4_Q9Y6R4_1322_NIIGQVCDTPK (UniProt Q9Y6R4),-0.148
3,MARS_P56192_408_FVEGVCPFCGYEEARGDQCDK (UniProt P56192),0.00823
4,MACF1_Q9UPN3_5188_LDIEASEAECR (UniProt Q9UPN3),0.0708
5,LY75_O60449_501_MCPPDEGWKR (UniProt O60449),-0.0884
6,MACF1_Q9UPN3_3527_GSNSEIDVDSLNLCLQQYEDLK (UniProt Q9UPN3),0.0862
7,MAP10_Q9P2G4_273_TNSVVTCSGAGNGR (UniProt Q9P2G4),-0.188
8,MARK3_P27448_213_LDTFCGSPPYAAPELFQGK (UniProt P27448),0.0177
9,MAP7D1_Q3KQU3-4_329_DQAVPVCPR (UniProt Q3KQU3),-0.245
10,LYAR_Q9NX58_6+9_VFFTCNACGESVKK (UniProt Q9NX58),-0.2
11,MACF1_Q9UPN3_666_LETQYCK (UniProt Q9UPN3),-0.158
12,MAP3K1_Q13233_667_AMLVYTPCHSLAER (UniProt Q13233),0.387
13,MAP2K7_O14733_280_SAGCAAYMAPER (UniProt O14733),-0.201
14,MAIP1_Q8WWC4_162_LLSQCK (UniProt Q8WWC4),0.0774
15,MAP4K1_Q92918_428_CASGPPPNSPR (UniProt Q92918),0.0226
16,MADD_Q8WXG6_1521_ELYYCVK (UniProt Q8WXG6),0.0787
17,LY75_O60449_1060_YHCALILNLQK (UniProt O60449),0.185
18,LYST_Q99698_2965_CYLTIPNK (UniProt Q99698),-0.163
19,MAK16_Q9BXY0_17_QFCSFK (UniProt Q9BXY0),0.0665
20,LTA4H_P09960_136_EHPYLFSQCQAIHCR (UniProt P09960),-0.0119
